Measurements reported in PubChem BioAssay AID1259405 (NCATS, 2018).
The whole screen tested about 50,000 reagents; shown is a part drawn at random. In the full data, about 4,000 (8%) were called active. 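Mouse siRNA library applied to hamster cells; one well for each siRNA.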 A number with no mark means an inactive call. The numbers tell different reagents against one gene apart.

Assay: 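Knock-downs that lift recombinant protein yield in hamster ovary cells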 (primary screen)
Cell system: Chinese hamster CHO-K1 ovary cells with stable secreted eGFP expression
Knock-down reagent: single siRNA against mouse genes, 0.8 pmol siRNA per well (2 µl of 400 nM stock)
Duration: 3 days
Measurement: 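Per-well intracellular GFP measured by laser scanning cytometry, plus viability from ATP luminescence, each relative to plate median of non-targeting control wells, in %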
Scale: GFP, % of control: higher = more GFP per well, higher productivity; viability (ATP), % of control: higher = more viable cells (more ATP)
Active means: 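a knock-down is called active if GFP reaches 120% or more of non-targeting control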

For Gale #1 the deposit lists GFP, % of control 76.7; viability (ATP), % of control 92.1.
After knock-down of Gale #2, the record shows GFP, % of control 48.1; viability (ATP), % of control 46.7.
Against Ddit3 #1 the deposit lists GFP, % of control 87.6; viability (ATP), % of control 86.5.
Ddit3 #2 gave GFP, % of control 103; viability (ATP), % of control 72.7.
Silencing of Ddit3 #3 resulted in: GFP, % of control 124 (active); viability (ATP), % of control 101.
After knock-down of Or7g28 #1 the results were GFP, % of control 78.4; viability (ATP), % of control 75.6.
Against Or7g28 #2 the deposit lists GFP, % of control 66.8; viability (ATP), % of control 53.8.
Or7g28 #3 scored GFP, % of control 67.4; viability (ATP), % of control 77.7.
Pds5a #1 showed GFP, % of control 78; viability (ATP), % of control 55.5.
Knock-down of Pds5a #2 came out at: GFP, % of control 91.1; viability (ATP), % of control 74.4.
Knock-down of Pds5a #3 resulted in: GFP, % of control 90.5; viability (ATP), % of control 89.5.
After knock-down of Cdca4 #1, the screen gave GFP, % of control 97; viability (ATP), % of control 102.
Depletion of Cdca4 #2 came out at: GFP, % of control 128 (active); viability (ATP), % of control 97.2.
With knock-down of Cdca4 #3, the record shows GFP, % of control 94.1; viability (ATP), % of control 117.
After knock-down of Cdc42ep4 #1 the results were GFP, % of control 66.7; viability (ATP), % of control 86.3.
Silencing of Cdc42ep4 #2 resulted in: GFP, % of control 74.3; viability (ATP), % of control 35.5.
Cdc42ep4 #3 scored GFP, % of control 96.4; viability (ATP), % of control 99.9.
Silencing of Kdf1 #1 gave: GFP, % of control 76; viability (ATP), % of control 77.9.
Kdf1 #2 showed GFP, % of control 31.7; viability (ATP), % of control 35.5.
Kdf1 #3 scored GFP, % of control 50.9; viability (ATP), % of control 77.4.

Records listed above marked active (2):
Ddit3 #3: GFP, % of control = 124 (active); viability (ATP), % of control = 101
Cdca4 #2: GFP, % of control = 128 (active); viability (ATP), % of control = 97.2

The list goes on:
For Nlrc5 #1, the entry reads GFP, % of control 63.8; viability (ATP), % of control 72.6.
Depletion of Nlrc5 #2 gave: GFP, % of control 79.4; viability (ATP), % of control 95.2.
Knock-down of Nlrc5 #3 gave: GFP, % of control 0; viability (ATP), % of control 369.
With knock-down of Iigp1b #1, the screen gave GFP, % of control 48.6; viability (ATP), % of control 58.3.
For Iigp1b #2 the deposit lists GFP, % of control 93.5; viability (ATP), % of control 78.8.
For Iigp1b #3, the values are GFP, % of control 107; viability (ATP), % of control 68.6.
Silencing of Zfp143 #1 came out at: GFP, % of control 64.3; viability (ATP), % of control 62.
Silencing of Zfp143 #2 resulted in: GFP, % of control 130 (active); viability (ATP), % of control 90.3.
For Bdh2 #1 the deposit lists GFP, % of control 142 (active); viability (ATP), % of control 55.2.
Depletion of Bdh2 #2 gave: GFP, % of control 78.1; viability (ATP), % of control 71.5.
With knock-down of Bdh2 #3, the screen gave GFP, % of control 47.9; viability (ATP), % of control 68.6.
Knock-down of Avp #1 gave: GFP, % of control 65.9; viability (ATP), % of control 82.3.
For Avp #2, the values are GFP, % of control 62.5; viability (ATP), % of control 57.3.
Against Avp #3, the entry reads GFP, % of control 92; viability (ATP), % of control 70.5.
For Or1r1 #1, the values are GFP, % of control 87.2; viability (ATP), % of control 62.
For Or1r1 #2 the deposit lists GFP, % of control 81.3; viability (ATP), % of control 65.9.
For Or1r1 #3, the entry reads GFP, % of control 38.5; viability (ATP), % of control 62.2.
Knock-down of Ifit1 #1 resulted in: GFP, % of control 69.2; viability (ATP), % of control 87.1.
Knock-down of Ifit1 #2 gave: GFP, % of control 65.5; viability (ATP), % of control 75.
After knock-down of Ifit1 #3 the results were GFP, % of control 116; viability (ATP), % of control 80.
